Source: patent US10487129B2, “Stabilized insulinotropic peptides and methods of use” (Dana-Farber Cancer Institute, Inc., priority 2010, dated 2019)
Not every detail of the peptide structures is certain; ends, links or a residue may be inferred.

With CC[C@H](C)[C@H](NC(=O)[C@H](Cc1ccccc1)NC(=O)[C@H](CC(C)C)NC(=O)[C@H](CCCNC(=N)N)NC(=O)[C@@H](NC(=O)[C@H](C)NC(=O)[C@H](CCC(=O)O)NC(=O)[C@H](CCC(=O)O)NC(=O)[C@H](CCC(=O)O)NC(=O)[C@]1(C)CCCC=CCCC[C@](C)(NC(=O)[C@H](CC(=O)O)NC(=O)[C@H](CO)NC(=O)[C@@H](NC(=O)[C@H](Cc2ccccc2)NC(=O)[C@@H](NC(=O)CNC(=O)[C@H](CCC(=O)O)NC(=O)CNC(=O)[C@@H](N)Cc2c[nH]cn2)[C@@H](C)O)[C@@H](C)O)C(=O)N[C@@H](CO)C(=O)N[C@@H](CCCCN)C(=O)N[C@@H](CCC(N)=O)C(=O)N1)C(C)C)C(=O)N[C@@]1(C)CCCC=CCCC[C@@](C)(C(=O)NCC(=O)NCC(=O)N2CCC[C@H]2C(=O)N[C@@H](CO)C(=O)N[C@@H](CO)C(=O)NCC(=O)N[C@@H](C)C(=O)N2CCC[C@H]2C(=O)N2CCC[C@H]2C(=O)N2CCC[C@H]2C(=O)N[C@@H](CO)C(N)=O)NC(=O)[C@H](CCCCN)NC(=O)[C@H](CC(C)C)NC(=O)[C@H](Cc2c[nH]c3ccccc23)NC1=O [SAH-Fx(A,B)] the “Fold Enhancement” value (Pepsin, pH 2) was 13 Fold, the “Half-Life” value (Pepsin, pH 2) was 2.87 h and the “Fold Enhancement” value (Chymotrypsin, pH 7) was 8 Fold. The “Half-Life” value (Chymotrypsin, pH 7) was 4.92 h.
